Data taken from patent US20050272099A1.
These are yes or no findings as the source states them, for the method shown. In cells and extracts the contact can be indirect. Some binding calls cover weakened binding; strength is not graded here.

Protein sequences, listed by entry. Tags and fused reporters are not part of them. Lines headed by an entry give the natural chain unless they say otherwise; changes in a name come on top.
UniProt P10275: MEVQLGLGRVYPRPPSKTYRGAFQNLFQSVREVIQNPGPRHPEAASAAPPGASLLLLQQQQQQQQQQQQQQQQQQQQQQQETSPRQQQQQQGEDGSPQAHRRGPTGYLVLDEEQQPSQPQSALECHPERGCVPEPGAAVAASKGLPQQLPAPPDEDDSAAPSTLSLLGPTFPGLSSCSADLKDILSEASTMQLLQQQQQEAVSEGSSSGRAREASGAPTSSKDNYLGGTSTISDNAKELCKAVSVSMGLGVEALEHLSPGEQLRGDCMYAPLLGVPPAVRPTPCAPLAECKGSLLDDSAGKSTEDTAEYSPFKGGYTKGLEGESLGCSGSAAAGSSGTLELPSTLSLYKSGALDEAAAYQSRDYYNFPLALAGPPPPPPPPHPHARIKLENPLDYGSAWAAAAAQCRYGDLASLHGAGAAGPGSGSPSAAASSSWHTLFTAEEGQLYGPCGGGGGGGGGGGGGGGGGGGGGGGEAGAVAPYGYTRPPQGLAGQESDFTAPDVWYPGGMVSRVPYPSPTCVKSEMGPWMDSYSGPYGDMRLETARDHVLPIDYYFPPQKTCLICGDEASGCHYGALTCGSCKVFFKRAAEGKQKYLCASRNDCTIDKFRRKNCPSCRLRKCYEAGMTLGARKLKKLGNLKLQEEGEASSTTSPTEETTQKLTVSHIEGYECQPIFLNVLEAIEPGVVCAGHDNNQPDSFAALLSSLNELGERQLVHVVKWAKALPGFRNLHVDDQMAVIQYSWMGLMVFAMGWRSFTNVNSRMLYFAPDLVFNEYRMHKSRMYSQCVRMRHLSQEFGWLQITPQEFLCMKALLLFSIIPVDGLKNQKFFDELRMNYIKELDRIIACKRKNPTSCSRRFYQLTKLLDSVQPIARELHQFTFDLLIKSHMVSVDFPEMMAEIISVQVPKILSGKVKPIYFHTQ
UniProt Q58WW2: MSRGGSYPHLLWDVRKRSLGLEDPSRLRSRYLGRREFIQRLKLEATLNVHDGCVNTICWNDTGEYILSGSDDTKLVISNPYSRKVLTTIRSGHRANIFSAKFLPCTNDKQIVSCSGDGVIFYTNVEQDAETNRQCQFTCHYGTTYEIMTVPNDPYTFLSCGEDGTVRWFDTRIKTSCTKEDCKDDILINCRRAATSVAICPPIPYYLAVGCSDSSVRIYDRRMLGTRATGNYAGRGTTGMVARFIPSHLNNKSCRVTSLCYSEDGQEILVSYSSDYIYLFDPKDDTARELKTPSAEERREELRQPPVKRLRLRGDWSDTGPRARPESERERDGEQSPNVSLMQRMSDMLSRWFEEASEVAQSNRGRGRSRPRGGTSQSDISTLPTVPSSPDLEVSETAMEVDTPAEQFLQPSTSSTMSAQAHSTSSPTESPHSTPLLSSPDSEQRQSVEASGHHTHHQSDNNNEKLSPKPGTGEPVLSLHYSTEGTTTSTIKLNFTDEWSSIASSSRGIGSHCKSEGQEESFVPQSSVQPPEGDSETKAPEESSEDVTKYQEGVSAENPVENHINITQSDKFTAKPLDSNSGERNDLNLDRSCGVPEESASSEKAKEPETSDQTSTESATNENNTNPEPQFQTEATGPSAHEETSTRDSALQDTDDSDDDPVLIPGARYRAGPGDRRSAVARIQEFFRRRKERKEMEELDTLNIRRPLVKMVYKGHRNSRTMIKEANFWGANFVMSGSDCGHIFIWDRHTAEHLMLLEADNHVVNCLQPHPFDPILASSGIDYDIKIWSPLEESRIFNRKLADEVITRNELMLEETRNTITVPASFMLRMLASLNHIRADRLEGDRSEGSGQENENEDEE

Target: androgen receptor (UniProt P10275)
Assay: reciprocal co-immunoprecipitation from transfected COS7 cell lysate (AR, HA or Xpress antibody), 35S label, autoradiography

With “ARCAP-HA or ARCAP-Xpress epitope fusion protein (from UniProt Q58WW2 1-860)” the binding was “binds”.
